According to article PMC8910673:
These are yes or no findings as the source states them, for the method shown. For some assays here: In cells and extracts the contact can be indirect. Some binding calls cover weakened binding; strength is not graded here. Tags and fused reporters may be left off the sequences shown. Values belong to the binder of their own block, whether it stands above or below them.

Key:
[1] = target: T1, MOB1A-NLuc (Arabidopsis thaliana) (UniProt Q9FHI1); assay: split reporter; firefly luciferase complementation imaging (LCI) in N. benthamiana leaves, 2-4 days after infiltration; 1 mM D-luciferin, CCD imaging
T1 sequence: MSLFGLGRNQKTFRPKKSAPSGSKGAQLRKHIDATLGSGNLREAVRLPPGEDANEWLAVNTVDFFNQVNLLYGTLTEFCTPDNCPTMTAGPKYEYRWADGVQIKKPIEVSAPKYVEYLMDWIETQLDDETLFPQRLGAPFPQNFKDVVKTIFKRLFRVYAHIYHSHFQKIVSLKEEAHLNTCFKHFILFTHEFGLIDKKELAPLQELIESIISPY

[2] = target: T2, MOB1B-NLuc (Arabidopsis thaliana) (UniProt Q8GYX0); assay: as above
T2 sequence: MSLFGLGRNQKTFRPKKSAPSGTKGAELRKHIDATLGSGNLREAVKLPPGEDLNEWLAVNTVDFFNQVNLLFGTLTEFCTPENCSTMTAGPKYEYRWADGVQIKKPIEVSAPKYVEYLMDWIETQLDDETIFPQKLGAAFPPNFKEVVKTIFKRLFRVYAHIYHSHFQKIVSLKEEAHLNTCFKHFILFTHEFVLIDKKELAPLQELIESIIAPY

[3] = target: T3, MOB1A (pGBKT7, BD fusion) (Arabidopsis thaliana) (UniProt Q9FHI1); assay: two-hybrid; Gal4 system (Clontech), yeast strain AH109; growth on SD/-Trp-Leu-His, 3-7 days at 28 °C
T3 sequence: T1 sequence

[4] = target: T4, MOB1B (pGBKT7, BD fusion) (Arabidopsis thaliana) (UniProt Q8GYX0); assay: as above
T4 sequence: T2 sequence

binding [1]: binds
binding [2]: binds
B1: CLuc-MAP3Kε2 (protein, UniProt Q9SFB6 1-1367)
chain: MARQMTSSQFHKSKTLDNKYMLGDEIGKGAYGRVYIGLDLENGDFVAIKQVSLENIGQEDLNTIMQEIDLLKNLNHKNIVKYLGSLKTKTHLHIILEYVENGSLANIIKPNKFGPFPESLVTVYIAQVLEGLVYLHEQGVIHRDIKGANILTTKEGLVKLADFGVATKLNEADFNTHSVVGTPYWMAPEVIELSGVCAASDIWSVGCTIIELLTCVPPYYDLQPMPALYRIVQDDTPPIPDSLSPDITDFLRLCFKKDSRQRPDAKTLLSHPWIRNSRRALRSSLRHSGTIRYMKETDSSSEKDAEGSQEVVESVSAEKVEVTKTNSKSKLPVIGGASFRSEKDQSSPSDLGEEGTDSEDDINSDQGPTLSMHDKSSRQSGTCSISSDAKGTSQDVLENHEKYDRDEIPGNLETEASEGRRNTLATKLVGKEYSIQSSHSFSQKGEDGLRKAVKTPSSFGGNELTRFSDPPGDASLHDLFHPLDKVPEGKTNEASTSTPTANVNQGDSPVADGGKNDLATKLRARIAQKQMEGETGHSQDGGDLFRLMMGVLKDDVLNIDDLVFDEKVPPENLFPLQAVEFSRLVSSLRPDESEDAIVTSSLKLVAMFRQRPGQKAVFVTQNGFLPLMDLLDIPKSRVICAVLQLINEIVKDNTDFLENACLVGLIPLVMSFAGFERDRSREIRKEAAYFLQQLCQSSPLTLQMFISCRGIPVLVGFLEADYAKHREMVHLAIDGMWQVFKLKKSTSRNDFCRIAAKNGILLRLVNTLYSLSEATRLASISGDALILDGQTPRARSGQLDPNNPIFSQRETSPSVIDHPDGLKTRNGGGEEPSHALTSNSQSSDVHQPDALHPDGDRPRLSSVVADATEDVIQQHRISLSANRTSTDKLQKLAEGASNGFPVTQPDQVRPLLSLLEKEPPSRKISGQLDYVKHIAGIERHESRLPLLYASDEKKTNGDLEFIMAEFAEVSGRGKENGNLDTAPRYSSKTMTKKVMAIERVASTCGIASQTASGVLSGSGVLNARPGSTTSSGLLAHALSADVSMDYLEKVADLLLEFARAETTVKSYMCSQSLLSRLFQMFNRVEPPILLKILECTNHLSTDPNCLENLQRADAIKQLIPNLELKEGPLVYQIHHEVLSALFNLCKINKRRQEQAAENGIIPHLMLFVMSDSPLKQYALPLLCDMAHASRNSREQLRAHGGLDVYLSLLDDEYWSVIALDSIAVCLAQDVDQKVEQAFLKKDAIQKLVNFFQNCPERHFVHILEPFLKIITKSSSINKTLALNGLTPLLIARLDHQDAIARLNLLKLIKAVYEKHPKPKQLIVENDLPQKLQNLIEERRDGQRSGGQVLVKQMATSLLKALHINTIL

binding [3]: binds
binding [4]: binds
B2: MAP3Kε2 (pGADT7, AD fusion) (protein, UniProt Q9SFB6 1-1367)
chain: B1 chain

binding [3]: binds
binding [4]: binds
B3: MAP3Kε1 (pGADT7, AD fusion) (protein, UniProt Q9LJD8 1-1368)
chain: MARQMTSSQFHKSKTLDNKYMLGDEIGKGAYGRVYKGLDLENGDFVAIKQVSLENIVQEDLNTIMQEIDLLKNLNHKNIVKYLGSSKTKTHLHIILEYVENGSLANIIKPNKFGPFPESLVAVYIAQVLEGLVYLHEQGVIHRDIKGANILTTKEGLVKLADFGVATKLNEADVNTHSVVGTPYWMAPEVIEMSGVCAASDIWSVGCTVIELLTCVPPYYDLQPMPALFRIVQDDNPPIPDSLSPDITDFLRQCFKKDSRQRPDAKTLLSHPWIRNSRRALQSSLRHSGTIKYMKEATASSEKDDEGSQDAAESLSGENVGISKTDSKSKLPLVGVSSFRSEKDQSTPSDLGEEGTDNSEDDIMSDQVPTLSIHEKSSDAKGTPQDVSDFHGKSERGETPENLVTETSEARKNTSAIKHVGKELSIPVDQTSHSFGRKGEERGIRKAVKTPSSVSGNELARFSDPPGDASLHDLFHPLDKVSEGKPNEASTSMPTSNVNQGDSPVADGGKNDLATKLRATIAQKQMEGETGHSNDGGDLFRLMMGVLKDDVIDIDGLVFDEKVPAENLFPLQAVEFSRLVSSLRPDESEDAIVSSCQKLVAMFRQRPEQKVVFVTQHGFLPLMDLLDIPKSRVICAVLQLINEIIKDNTDFQENACLVGLIPVVMSFAGPERDRSREIRKEAAYFLQQLCQSSPLTLQMFIACRGIPVLVGFLEADYAKYREMVHLAIDGMWQVFKLKRSTPRNDFCRIAAKNGILLRLINTLYSLNEATRLASISGGLDGQAPRVRSGQLDPNNPIFGQNETSSLSMIDQPDVLKTRHGGGEEPSHASTSNSQRSDVHQPDALHPDGDKPRVSSVAPDASTSGTEDVRQQHRISLSANRTSTDKLQKLAEGASNGFPVTQTEQVRPLLSLLDKEPPSRHYSGQLDYVKHITGIERHESRLPLLHGSNEKKNNGDLDFLMAEFAEVSGRGKENGSLDTTTRYPSKTMTKKVLAIEGVASTSGIASQTASGVLSGSGVLNARPGSATSSGLLAHMVSTLSADVAREYLEKVADLLLEFARADTTVKSYMCSQSLLSRLFQMFNRVEPPILLKILECTNHLSTDPNCLENLQRADAIKHLIPNLELKDGHLVYQIHHEVLSALFNLCKINKRRQEQAAENGIIPHLMLFIMSDSPLKQYALPLLCDMAHASRNSREQLRAHGGLDVYLSLLDDEYWSVIALDSIAVCLAQDNDNRKVEQALLKQDAIQKLVDFFQSCPERHFVHILEPFLKIITKSYRINKTLAVNGLTPLLISRLDHQDAIARLNLLKLIKAVYEHHPRPKQLIVENDLPQKLQNLIEERRDGQRSGGQVLVKQMATSLLKALHINTIL

binding [1]: binds
binding [2]: binds
B4: CLuc-MAP3Kε1 (protein, UniProt Q9LJD8 1-1368)
chain: B3 chain
